Consider 1 substance from PMC11678445.

By UniProt entry, the sequences of proteins in these tests, tags left out. Where a name states a change or a piece, a line headed by the entry shows the natural chain unless it says otherwise.
UniProt Q5JTV8: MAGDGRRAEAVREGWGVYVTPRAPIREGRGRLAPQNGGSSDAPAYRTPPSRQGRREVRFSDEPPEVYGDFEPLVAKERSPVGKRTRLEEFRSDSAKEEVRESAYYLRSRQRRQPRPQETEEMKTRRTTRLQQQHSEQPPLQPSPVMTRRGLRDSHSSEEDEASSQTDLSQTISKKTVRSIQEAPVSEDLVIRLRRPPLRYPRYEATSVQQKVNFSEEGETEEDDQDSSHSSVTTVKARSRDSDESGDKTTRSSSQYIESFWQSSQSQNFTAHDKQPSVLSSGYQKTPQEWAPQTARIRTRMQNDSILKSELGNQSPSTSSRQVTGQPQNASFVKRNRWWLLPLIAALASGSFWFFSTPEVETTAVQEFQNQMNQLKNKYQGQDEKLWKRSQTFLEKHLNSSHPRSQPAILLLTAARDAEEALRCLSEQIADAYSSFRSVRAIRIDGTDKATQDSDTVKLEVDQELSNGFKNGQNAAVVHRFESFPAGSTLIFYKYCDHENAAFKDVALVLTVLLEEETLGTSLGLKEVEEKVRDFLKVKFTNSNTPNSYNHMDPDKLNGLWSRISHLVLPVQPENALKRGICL
UniProt P12956: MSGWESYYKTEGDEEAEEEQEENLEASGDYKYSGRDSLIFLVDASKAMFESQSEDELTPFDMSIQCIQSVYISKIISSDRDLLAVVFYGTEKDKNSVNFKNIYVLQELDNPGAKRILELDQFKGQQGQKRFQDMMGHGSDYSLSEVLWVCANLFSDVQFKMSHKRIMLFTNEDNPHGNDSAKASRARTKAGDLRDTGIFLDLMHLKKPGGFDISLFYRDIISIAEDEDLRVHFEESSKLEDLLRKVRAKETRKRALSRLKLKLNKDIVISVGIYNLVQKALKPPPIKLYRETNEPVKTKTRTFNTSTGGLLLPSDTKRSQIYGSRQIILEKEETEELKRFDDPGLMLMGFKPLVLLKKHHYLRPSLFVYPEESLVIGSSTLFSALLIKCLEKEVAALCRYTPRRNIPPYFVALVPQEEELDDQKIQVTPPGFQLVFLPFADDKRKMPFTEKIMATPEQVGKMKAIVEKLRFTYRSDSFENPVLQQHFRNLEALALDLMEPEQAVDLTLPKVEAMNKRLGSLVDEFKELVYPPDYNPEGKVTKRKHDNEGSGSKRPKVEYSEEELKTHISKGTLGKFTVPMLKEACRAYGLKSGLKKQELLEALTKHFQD

No constants are given. Whether binding was seen depends on the method and setting. In cells and extracts the contact can be indirect.

The experiment addresses LAP1 E482A (mutant LAP1 of patient-derived fibroblasts) (human (endogenous in skin fibroblasts)) (UniProt Q5JTV8). Description: co-IP; endogenous LAP1 immunoprecipitated from fibroblast whole cell lysates (control or LAP1 E482A; 2000 µg protein, 4% CHAPS lysis buffer, 50 mM Tris-HCl pH 8, 120 mM NaCl) with anti-LAP1 antibody cross-linked to Dynabeads Protein G, 4 °C overnight; rabbit IgG control; immunoblotting for LAP1, Ku70, emerin and H2AX. Background: Immunoblotting shows a protein as a band on a membrane.

Regarding Ku70 (from UniProt P12956 1-609), the binding entry is “no binding”.
